# Screen size: about 1,400 compounds; about 50 (4%) were called active.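 Rule for the calls: active = fitted curve reaches 30% CPE protection at or below the top valid dose, with every test run called active; inconclusive = test runs disagree, some active and some not; inactive = every test run inactive, including effects in the wrong direction.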 The list shows a part of the results. Results with a measured potency or affinity are listed apart.
# Assay: antiviral rescue of DENV2-infected BHK-21 cells – cell-based, ATP luminescence, cherry-pick, dose response (AID 687031);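 note: 0% = infected DMSO wells and 100% = uninfected cell wells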
# Conditions: BHK-21 DENV2 CPE protection, 5 d; at 19.5 µM (top of the series) unless noted
row,Structure (SMILES),CPE protection (higher = active)
1,Cc1ccccc1S(=O)(=O)N1C[C@@H](O)COC[C@@H]2O[C@H](CC(=O)N3CCCCC3)CC[C@H]21,inactive: 8.68%
2,O=S(=O)(NCCC1=CCCCC1)c1ccc(Br)cc1,inactive: 3.04%
3,CSCCC(NS(=O)(=O)c1cccs1)C(=O)NCc1ccccc1 (configuration not stated),inactive: -0.773%
4,O=C(C1CCCCC1)N1C[C@H](O)[C@@H](n2cc(C3CC3)nn2)C[C@@H]1c1ccccc1,inactive: 3.91%
5,O=C(NCCN1CCC(n2c(=O)[nH]c3ccccc32)CC1)c1ccccc1,inactive: 8.45%
6,CC(C)(C)OC(=O)N1CCC(NC(=O)c2nc[nH]c2C(=O)NCc2ccccc2)CC1,inactive: 20%
7,CN(CC(=O)Nc1ccc(F)cc1)C(=O)COC(=O)c1nc(Cl)ccc1Cl,inactive: 9.36%
8,CC(C)Cn1c(=S)[nH]c2cc(C(=O)NCc3ccccc3F)ccc2c1=O,inactive: 0.65%
9,O=C1c2ccccc2CN1CCSC(=S)N1CCOCC1,inactive: -2.61%
10,CC(C)SCc1cc(N2CCCC2)nc(-c2ccccc2)n1,inactive: -9.75%
11,COCCNC(=O)CCC1CCN(Cc2ccc(-c3ccccc3)cc2)CC1,inactive: -10.3%
12,CC(C)(C)NC(=O)COc1coc(CN2CCN(Cc3ccccc3)CC2)cc1=O,inactive: 10.1%
13,C[C@@H]1CN([C@@H](C)CO)C(=O)c2cc(C#Cc3cccc(F)c3)cnc2O[C@@H]1CN(C)C(=O)C1CCC1,inactive: -0.303%
14,COc1ccc(-c2cc(C(=O)NCCCN3CCCC3=O)c3ccccc3n2)cc1,inactive: -27.2%
15,CC(C)CNC(=O)C1(C)CCCCCN1C(=O)c1csnn1 (configuration not stated),inactive: 28.5%
16,Cc1noc(C)c1NC(=O)Nc1ccc2c(c1)C(=O)N([C@H](C)CO)C[C@@H](C)[C@H](CN(C)S(=O)(=O)c1ccc(F)cc1)O2,inactive: 5.12%
17,COc1ccc(NC(=O)C2CCCN2S(=O)(=O)c2ccc3c(c2)CCC(=O)N3)c(OC)c1 (configuration not stated),inactive: 1.59%
18,COc1ccc(N(CC(=O)NCCSc2ccccc2)S(=O)(=O)c2ccccc2)c(OC)c1,inactive: -3.02%
19,O=C(c1ccccc1Cc1ccccc1)N1CCN(S(=O)(=O)c2ccccc2)CC1,inactive: 0.551%
20,COc1ccc(C(CNC(=O)COc2cc(C)ccc2Cl)N2CCCCC2)cc1 (configuration not stated),inactive: -7.55%
21,Cc1ccc(-c2csc(NCCn3c(C)nc4cc(C(F)(F)F)ccc43)n2)cc1,inactive: 28.3%
22,O=c1cc(-c2cccc(F)c2)[nH]c2ccccc12,inactive: -10.6%

row,Structure (SMILES),CPE protection (higher = active)
1,COc1ccc([C@H]2/C=C\CN(C(=O)c3ccc(C)cc3)[C@@H](C)C(=O)N2Cc2ccc(F)cc2)cc1,inactive: -6.91%
2,CC(=O)N1[C@H](CO)[C@@H](c2ccc(-c3cccc(F)c3)cc2)[C@H]1CNC(=O)C1CC1,inactive: 18%
3,CC(C)(C)OC(=O)NC(CC(=O)OCc1ccccc1)C(=O)O (configuration not stated),inactive: 21.4%
4,CCOc1ccc(C(=O)NCC(=O)N2CCCCCCC2)cc1,inactive: 11.9%
5,CCNC(=O)C[C@@H]1CC[C@@H]2[C@H](COc3ccc(NC(=O)c4ccc(F)c(F)c4)cc3C(=O)N2C)O1,inactive: -3.02%
6,COc1ccccc1-c1cncc(NC(C)=O)n1,inactive: 0.302%
7,O=C(Nc1ccc(Br)cc1F)C1CCN(c2nnc(-n3cccc3)s2)CC1,inactive: -17.6%
8,Cc1ccc(CNC(=O)C2CCC(=O)N(CCc3ccccn3)C2)s1 (configuration not stated),inactive: -1.35%
9,COc1cccc(NC(=O)N2[C@@H]3CNC[C@H]2C3c2ccc(-c3ccccc3)cc2)c1 (some centres not stated),inactive: -7.29% [at 21 µM]
10,CCCN1[C@H](C(=O)OC)[C@@H](CO)[C@@H]2Cn3c(ccc(C4=CCCC4)c3=O)[C@@H]21,inactive: 8.66%
11,Cc1ccc(C)c(NS(=O)(=O)c2cc(C(=O)NCc3ccncc3)ccc2C)c1,inactive: 15.2%
12,CCOc1cccc(-c2c(C(=O)N/N=C/c3ccc(Br)cc3)nnn2-c2nonc2N)c1,inactive: -1.09%
13,CCCCOc1ccc(C(=O)NCCOc2cccc(OC)c2)cc1,inactive: -13.7%
14,Cc1nc(C(F)(F)F)ccc1C(=O)N1CCC1(C)C(=O)NS(=O)(=O)c1ccc(C#N)cc1 (configuration not stated),inactive: -3.13%
15,C[C@@H]1CCCCO[C@H](CN(C)Cc2ccc(C(F)(F)F)cc2)[C@H](C)CN([C@@H](C)CO)C(=O)c2cc(NC(=O)c3ccccc3)ccc2O1,inactive: -3.09% [at 5 µM]
16,Nc1ccccc1C(O)(Cc1ccccc1)c1ccccc1 (configuration not stated),inactive: 23.5%
17,O=C(C[C@H]1CC[C@H]2[C@@H](COC[C@H](O)CN2C(=O)Nc2ccc(Cl)cc2)O1)NCC1CC1,inactive: -2.79%
18,CN(CC(=O)Nc1ccccc1C(=O)NC1CC1)Cc1ccccc1F,inactive: 28.4%
19,C[C@H](CO)N1C[C@H](C)[C@@H](CN(C)Cc2ccc3c(c2)OCO3)OCCCC[C@H](C)Oc2ccc(N(C)C)cc2C1=O,inactive: -1.48%
20,CCNC(=O)C[C@H]1CC[C@H]2[C@@H](COC[C@@H](O)CN2Cc2ccc(Cl)c(Cl)c2)O1,inactive: 14.9%
21,CC(=O)Nc1cccc(/C(C)=N/NC(=O)c2cccc(S(=O)(=O)N3CCCC3)c2)c1,inactive: 3.82%
22,OC(CN1CCN(c2cccc(Cl)c2)CC1)c1ccc(F)cc1 (configuration not stated),inactive: 8.73%

# Single entries from the results shown:
# Entry of Cc1noc(C)c1NC(=O)Nc1ccc2c(c1)C(=O)N([C@H](C)CO)C[C@@H](C)[C@H](CN(C)S(=O)(=O)c1ccc(F)cc1)O2 under CPE protection (higher = active): inactive: 5.12%
# Entry of CC(C)(C)OC(=O)NC(CC(=O)OCc1ccccc1)C(=O)O (configuration not stated) under CPE protection (higher = active): inactive: 21.4%
# Entry of CC(C)CNC(=O)C1(C)CCCCCN1C(=O)c1csnn1 (configuration not stated) under CPE protection (higher = active): inactive: 28.5%
# Entry of C[C@H](CO)N1C[C@H](C)[C@@H](CN(C)Cc2ccc3c(c2)OCO3)OCCCC[C@H](C)Oc2ccc(N(C)C)cc2C1=O under CPE protection (higher = active): inactive: -1.48%
# Entry of CC(C)SCc1cc(N2CCCC2)nc(-c2ccccc2)n1 under CPE protection (higher = active): inactive: -9.75%
# Entry of O=c1cc(-c2cccc(F)c2)[nH]c2ccccc12 under CPE protection (higher = active): inactive: -10.6%

# Remaining list, next part.

row,Structure (SMILES),CPE protection (higher = active)
1,C[C@H](CO)N1C[C@H](C)[C@H](CN(C)C)Oc2ncc(C#CC3CC3)cc2C1=O,inactive: 8.52%
2,O=C(C1CCOCC1)N1C[C@@H]2[C@H](c3ccccc31)[C@H](CO)N2C(=O)c1ccccc1,inactive: -12.7%
3,N#Cc1ccc(-c2ccc([C@@H]3[C@@H]4CN(Cc5cocn5)C[C@H]3N4)cc2)cc1,inactive: 5.15% [at 21 µM]
4,O=C(CN1CCN(C(=O)C2CCC2)CC1)Nc1ccc(F)cc1,inactive: -35.6%
5,Cc1ccc(Cn2cc(CN3CC(N(C)C)CS3(=O)=O)nn2)cc1 (configuration not stated),inactive: 14%
6,CC(C)(C)N(Cc1ccccc1)C(=O)COC(=O)C1CCN(c2ccc(C(F)(F)F)cn2)CC1,inactive: -7.35%
7,COc1ccc2c3c(n(C)c2c1)[C@H](CO)N(C(=O)Nc1ccccc1F)CC31CN(C)C1,inactive: 10.3% [at 21 µM]
8,CCCNC(=O)C[C@H]1CC[C@@H]2[C@H](COC[C@H](O)CN2C(=O)CC)O1,inactive: 36.8%
9,CCc1cc(=O)oc2cc(OCC(=O)NC3CC(C)(C)NC(C)(C)C3)ccc12,inactive: 3.18%
10,O=C(NCCS(=O)(=O)N1CCN(c2ccccc2)CC1)C1CC1,inactive: 14.1%
11,O=C(NCCCC1CCCC1)C1CCC(=O)N(Cc2cccc(C(F)(F)F)c2)C1 (configuration not stated),inactive: -1.57%
12,CC(C)c1ccc(NC2CCCN(C(=O)c3cccc(N4CCNC4=O)c3)C2)cc1 (configuration not stated),inactive: -1.41%
13,OC(COc1ccc(Cl)cc1Cl)Cn1ccnc1 (configuration not stated),inactive: 2.84%
14,CCOC(=O)N1CCC(NC(=O)c2cccc3c2C(=O)N(CCOC)C3)CC1,inactive: 8.32%
15,O=C(NCc1ccccn1)C(=O)NCC1OCCN1S(=O)(=O)c1ccc(Br)cc1 (configuration not stated),inactive: -4.64%
16,CCCCNC(=O)c1onc(CS(=O)(=O)c2ccccn2)c1C(=O)NCCCC,inactive: -9.41%
17,CCOc1ccccc1-c1nnc(CS(=O)(=O)c2ccccc2)o1,inactive: -7.93%
18,COc1ccc(C(CNS(=O)(=O)c2ccc(NC(C)=O)c(OC)c2)N2CCCC2)cc1 (configuration not stated),inactive: -7.25%
19,CC(C)OC(=O)N(C)C[C@@H]1OCc2cn(nn2)CCCC(=O)N([C@H](C)CO)C[C@@H]1C,inactive: -9.76%
20,OC1(c2ccc(Cl)cc2)CCN(Cc2c[nH]c3ccccc23)CC1,inactive: 24.7%
21,CN1C(C(=O)NCc2ccc(OC(F)(F)F)cc2)CC2Cn3c(nc4ccccc43)C21 (configuration not stated),inactive: -15.3%
22,CC12CCC(=O)N1C(C(=O)Nc1nc(-c3ccccc3)cs1)CS2 (configuration not stated),inactive: -9.64%

row,Structure (SMILES),CPE protection (higher = active)
1,Cc1ccc(C(=O)O/N=C(\N)c2ccccn2)cc1,inactive: 23.3%
2,CCCC(=O)Nc1ccc2nn(-c3ccc(OC)cc3)nc2c1,inactive: -9.23%
3,COc1ccc(C(=O)N2CCN(C3CCCCC3)CC2)cc1OC,inactive: 11.6%
4,CCCN1[C@H](C(=O)NCC(F)(F)F)[C@@H](CO)[C@@H]2Cn3c(ccc(-c4ccccc4)c3=O)[C@@H]21,inactive: 9.56%
5,CCOc1ccc(NC(=O)Cc2ccc(S(=O)(=O)N3CCOCC3)s2)cc1OCC,inactive: -6.85%
6,O=C(C[C@H]1CC[C@H]2[C@@H](COC[C@@H](O)CN2Cc2cccc(C(F)(F)F)c2)O1)NCc1ccc(F)cc1,inactive: 9.51%
7,COc1ccc2ccccc2c1CNC(C)c1ccccc1 (configuration not stated),inactive: -19.4%
8,COCCNC(=O)C1(C)CCCN(C(=O)c2ccccc2)C1 (configuration not stated),inactive: -6.95%
9,O=C(NCc1ccccc1)C(c1ccncc1)n1c(=O)c(-c2ccccc2)nc2ccccc21 (configuration not stated),inactive: -4.2%
10,COC(=O)[C@]12CCCCC=C1N(Cc1cccc3ccccc13)C(=O)[C@H](CC(=O)N1CCOCC1)C2,inactive: 4.23%
11,COc1ccc(C(C(=O)NCc2ccccc2)n2c(-c3ccncc3)nc3ccccc32)cc1 (configuration not stated),inactive: 10.5%
12,O=C(C[C@@H]1CC[C@@H]2[C@H](COC[C@H](O)CN2Cc2cccc(Cl)c2)O1)N1CCOCC1,inactive: 32.2%
13,N#Cc1c(Nc2ccccc2)[n+]([O-])c2ccc(Cl)cc2[n+]1[O-],inactive: -32.8%
14,CCNC(=O)C[C@H]1CC[C@@H]2[C@H](COC[C@H](O)CN2Cc2ccc(Cl)c(Cl)c2)O1,inactive: 12.1%
15,COc1ccc(CC(=O)OCC(=O)NCCNC(=O)COC(=O)Cc2ccc(OC)cc2)cc1,inactive: 10.7%
16,Cc1ccccc1S(=O)(=O)N1CC[C@H]2[C@@H](CO)N(C)c3ccc(Br)cc3[C@H]21,inactive: 2.06%
17,C[C@@H]1CN([C@H](C)CO)C(=O)c2cc(C#Cc3ccc(F)cc3)cnc2O[C@@H]1CN(C)C,inactive: 24.7%
18,Cc1ccc2ccc(C(Nc3ccccc3)c3ccccc3)c(O)c2n1 (configuration not stated),inactive: -6.24%
19,Cc1nccn1CC(O)COc1ccc(Cl)cc1Cl (configuration not stated),inactive: -6.74%
20,COc1ccc(NC(=O)N(C)C[C@H]2OCCCC[C@@H](C)Oc3ccc(NS(C)(=O)=O)cc3C(=O)N([C@H](C)CO)C[C@H]2C)cc1,inactive: 11.2%
21,CNC(=O)C[C@H]1CC[C@@H]2[C@H](COC[C@@H](O)CN2C(=O)Nc2ccc3c(c2)OCO3)O1,inactive: 13%

# — PubChem BioAssay AID687031 (Broad Institute, 2013)
